Each structure is given as a SMILES string. Structures can show the parent of a compound that is named as a salt. Where two headings read alike, the source gives them in different places. Among all 3,300 compounds or so, about 95 (3%) showed an effect of 50% or more. This is one part of the list. Numbered stars: 1 amine (or outer) side, 2 acyl side, 3 side chain; on linkers, the order of the positions; unused ones are H or OH. Square brackets hold non-standard residues; d marks the D form. Peptide text beside a SMILES is read from it. X1 = CC[C@@H](C)[C@@H](O[*:1])C(=O)[*:2]; NMeVal(β-OH) = CN[C@H](C(=O)O)C(C)(C)O; NMeF = CN[C@@H](Cc1ccccc1)C(=O)O; aIle = CC[C@@H](C)[C@H](N)C(=O)O; NMeV = CN[C@H](C(=O)O)C(C)C

The record followed here is PMC12431657, “Discovery and mechanistic insights of dibenzoylmethane as a broad spectrum inhibitor of coronavirus” (PLOS Pathogens, 2025).

In this experiment the test system is HCoV-229E. On the set-up: species or system Huh-7; HTS, protection from HCoV-229E induced cell death, luminescent cell viability (CellCounting-Lite 2.0), inhibition rate.

As to `CO[C@H]1CC[C@@H](O[C@H]2C[C@H]([C@]3(C)CC[C@]4(C[C@H](O)[C@@H](C)[C@@H]([C@@H](C)/C=C(\C)C(=O)[C@H](C)C[C@H](C)C(=O)O)O4)O3)O[C@]3(O[C@@H]([C@H]4O[C@@](O)(CO)[C@H](C)C[C@@H]4C)C[C@@H]3C)[C@@H]2C)O[C@@H]1C` [Dianemycin], the “229E Inhibition rate” value (24 h, 10 µM, inhibitor) came to 1%. For the compound `C[C@]12CC[C@H](O)C[C@H]1CC[C@@H]1[C@@H]2[C@H](O)C[C@]2(C)[C@@H](c3ccc(=O)oc3)CC[C@]12O` [Gamabufotalin], the “229E Inhibition rate” value (24 h, 10 µM; inhibitor) stood at 25.5%. For `O=c1ccc2c(O)c3ccoc3cc2o1` [Bergaptol], where the note is “24 h, 10 µM; inhibitor”, the “229E Inhibition rate” value came to 33.3%. Take `CC(C)=CCC[C@H](C(=O)O)[C@H]1CC[C@]2(C)C3=C(CC[C@@]12C)[C@@]1(C)CCC(=O)C(C)(C)[C@H]1CC3` [β-Elemonic acid]: the “229E Inhibition rate” value (24 h, 10 µM; inhibitor) is reported as 15.7%. Still for that read-out and setting: in the case of `COC(=O)C1=CCCNC1` [Guvacoline (hydrochloride)] it was 8.9%. On the same count and under the same terms, in the case of `C[C@]12CCC(=O)C=C1CC[C@@H]1[C@@H]2C(=O)C[C@]2(C)C(=O)CC[C@@H]12` [Adrenosterone] it was 14.3%; in that of `O=Cc1ccc[nH]1` [Pyrrole-2-carboxaldehyde], 21.6; in that of `O=C(O)CCCCCCCCCO` [10-Hydroxydecanoic acid], 13.7%.

For `O=C(O)c1cc2c(c3c1c([N+](=O)[O-])cc1ccccc13)OCO2` [Aristolochic acid B], the “229E Inhibition rate” value (24 h, 10 µM; inhibitor) came to 0%.

Turning to `CC[C@@]1(O)C(=O)OCc2c1cc1n(c2=O)Cc2cc3c(OC)cccc3nc2-1` [9-Methoxycamptothecin], the “229E Inhibition rate” value (24 h, 10 µM; inhibitor) is 4.5%. `CO[C@H]1CC[C@@H](O[C@H]2C[C@H]([C@]3(C)CC[C@]4(C[C@H](O)[C@@H](C)[C@@H]([C@@H](C)/C=C(\C)C(=O)[C@H](C)C[C@H](C)C(=O)O)O4)O3)O[C@]3(O[C@@H]([C@H]4O[C@@](O)(CO)[C@H](C)C[C@@H]4C)C[C@@H]3C)[C@@H]2C)O[C@@H]1C` [Nanchangmycin]: the “229E Inhibition rate” value (24 h, 10 µM, inhibitor) was determined as 0.6%.

`COC(=O)[C@]1(C)CC[C@]2(C)CC[C@]3(C)C4=CC=C5C(=CC(=O)C(O)=C5C)[C@]4(C)CC[C@@]3(C)[C@@H]2C1` [Pristimerin]: under “24 h, 10 µM; inhibitor”, the “229E Inhibition rate” value is given as 0.7%. On to `CCC1(O)C(=O)OCc2c1cc1n(c2=O)Cc2cc3cc(O)ccc3nc2-1` (racemic) [(±)-10-Hydroxycamptothecin], for which the “229E Inhibition rate” value (24 h, 10 µM; inhibitor) came to 8.6.

Regarding `O=C(O)[C@H]1O[C@@H](Oc2cc3oc(-c4ccc(O)cc4)cc(=O)c3c(O)c2O)[C@H](O)[C@@H](O)[C@@H]1O` [Scutellarin], under “24 h, 10 µM; inhibitor”, the “229E Inhibition rate” value is listed as 20.3. On to `COc1cc(CNC(=O)CCCCCC(C)C)ccc1O` [Nordihydrocapsaicin], for which the “229E Inhibition rate” value (24 h, 10 µM; inhibitor) is 28.7%.

For `C[C@@H]1CC[C@@]2(NC1)O[C@H]1C[C@H]3[C@@H]4CC=C5C[C@@H](O[C@@H]6O[C@H](CO)[C@@H](O[C@@H]7O[C@@H](C)[C@H](O)[C@@H](O)[C@H]7O)[C@H](O)[C@H]6O)CC[C@]5(C)[C@H]4CC[C@]3(C)[C@H]1[C@@H]2C` [Khasianine], the “229E Inhibition rate” value (24 h, 10 µM; inhibitor) amounted to 26.5%. Regarding `COC1=CC(=O)O[C@@H](CCc2ccccc2)C1` [Dihydrokavain], the “229E Inhibition rate” value (24 h, 10 µM; inhibitor) was 11.2%. On the same count and under the same terms, in the case of `CC1(C)OC1COc1c2occc2cc2ccc(=O)oc12` (stereo not drawn) [Oxyimperatorin] it was 9.8%.

For `COc1cc(CCN)ccc1O` [3-Methoxytyramine], the “229E Inhibition rate” value (24 h, 10 µM, inhibitor) worked out at 7.5%. As to `CC[C@@H](C)[C@@H]1NC(=O)[C@@H]2CCCN2C(=O)[C@H](Cc2ccccc2)N(C)C(=O)[C@H](Cc2ccccc2)NC(=O)[C@H](C(C)C)N(C)C(=O)[C@@H]([C@H](C)CC)OC(=O)[C@H](C(C)(C)O)N(C)C(=O)[C@H](CC(C)C)NC(=O)[C@H](C(C)C)N(C)C1=O` [Aureobasidin A] (cyclo(F[NMeF]P[aIle][NMeV]L[NMeVal(β-OH)][X1][NMeV])), the “229E Inhibition rate” value (24 h, 10 µM; inhibitor) was found to be 22.7%. The same measure, in the same setting: in the case of `Nc1ncnc2c1ncn2[C@@H]1O[C@H](COP(N)(=O)O)[C@@H](O)[C@H]1O` [Adenosine 5′-monophosphoramidate (sodium)] it was 32.5%. The same measure, in the same setting: as for `C/C=C1/C[C@@H](C)[C@@](C)(O)C(=O)OCC2=CCN3CC[C@@H](OC1=O)[C@@H]23` [Senecionine], the figure is 6.8%; as for `C[C@]12CC[C@H](OS(=O)(=O)O)CC1=CC[C@@H]1[C@@H]2CC[C@]2(C)C(=O)CC[C@@H]12` [Dehydroepiandrosterone sulfate (sodium salt)], 0%; as for `NC(=O)NCCCC[C@H](N)C(=O)O` [L-Homocitrulline], 20.7.

Regarding `C=C1C(=O)O[C@@H]2[C@H]3C(C)=CC[C@@]34O[C@@]4(C)CC[C@@H]12` [Arglabin], the “229E Inhibition rate” value (24 h, 10 µM; inhibitor) is 30.7. On to `Cc1cccc(C=O)c1` [m-Tolualdehyde], for which the “229E Inhibition rate” value (24 h, 10 µM; inhibitor) was 7.5%. On the same count and under the same terms, in the case of `C[C@@H]1CC[C@@]2(OC1)O[C@H]1C[C@H]3[C@@H]4CC=C5C[C@@H](O[C@@H]6O[C@H](CO)[C@@H](O[C@@H]7O[C@@H](C)[C@H](O[C@@H]8O[C@@H](C)[C@H](O)[C@@H](O)[C@H]8O)[C@@H](O)[C@H]7O)[C@H](O)[C@H]6O[C@@H]6O[C@@H](C)[C@H](O)[C@@H](O)[C@H]6O)CC[C@]5(C)[C@H]4CC[C@]3(C)[C@H]1[C@@H]2C` [Formosanin C] it was 12.7%.
